Reference: patent US7989630B2, “Radiotracers for imaging P-glycoprotein function” (National Institutes of Health Represented by the Secretary …, priority 2008, dated 2011)
Where a name gives a salt, the structure may show the parent alone.

Sequences of proteins named here, by UniProt entry; tags and fusion partners are left off.
UniProt P21447, whole entry: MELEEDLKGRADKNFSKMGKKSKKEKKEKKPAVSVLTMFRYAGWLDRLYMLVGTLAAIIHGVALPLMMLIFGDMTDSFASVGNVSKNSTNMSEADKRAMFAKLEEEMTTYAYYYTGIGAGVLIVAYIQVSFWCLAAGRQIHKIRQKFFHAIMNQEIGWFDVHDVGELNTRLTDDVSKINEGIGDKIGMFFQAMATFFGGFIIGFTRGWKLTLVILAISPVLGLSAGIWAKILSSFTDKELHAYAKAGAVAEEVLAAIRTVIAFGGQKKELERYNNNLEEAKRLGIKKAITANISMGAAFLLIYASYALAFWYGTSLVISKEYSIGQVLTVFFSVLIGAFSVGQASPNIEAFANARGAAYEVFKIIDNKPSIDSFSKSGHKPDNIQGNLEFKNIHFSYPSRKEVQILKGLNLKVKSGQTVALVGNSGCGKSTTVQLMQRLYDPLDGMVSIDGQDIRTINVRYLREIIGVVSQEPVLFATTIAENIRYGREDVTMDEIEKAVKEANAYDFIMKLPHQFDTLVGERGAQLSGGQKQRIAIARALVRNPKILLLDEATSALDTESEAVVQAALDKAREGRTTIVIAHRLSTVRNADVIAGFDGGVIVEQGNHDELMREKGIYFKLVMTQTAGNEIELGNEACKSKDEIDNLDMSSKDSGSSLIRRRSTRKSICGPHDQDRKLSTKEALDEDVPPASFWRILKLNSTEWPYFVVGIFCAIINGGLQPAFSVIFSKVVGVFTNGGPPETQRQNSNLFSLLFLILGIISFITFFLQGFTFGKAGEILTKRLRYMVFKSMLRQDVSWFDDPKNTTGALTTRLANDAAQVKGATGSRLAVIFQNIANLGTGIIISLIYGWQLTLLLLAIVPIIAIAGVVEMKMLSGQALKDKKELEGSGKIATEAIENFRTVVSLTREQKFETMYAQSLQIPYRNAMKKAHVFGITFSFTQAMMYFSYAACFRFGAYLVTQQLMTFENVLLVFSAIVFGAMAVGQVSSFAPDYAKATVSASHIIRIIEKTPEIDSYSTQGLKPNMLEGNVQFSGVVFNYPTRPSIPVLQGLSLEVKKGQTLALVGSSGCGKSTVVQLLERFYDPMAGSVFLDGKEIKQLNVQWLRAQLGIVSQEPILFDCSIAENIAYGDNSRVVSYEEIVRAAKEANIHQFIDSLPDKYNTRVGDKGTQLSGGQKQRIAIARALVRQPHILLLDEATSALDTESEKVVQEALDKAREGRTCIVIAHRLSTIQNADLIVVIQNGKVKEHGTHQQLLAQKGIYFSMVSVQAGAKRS

Legend:
[1] = tested on: P-gp; assay: PET imaging of [^11C]dLop in monkey brain, baseline and P-gp blocked with DCPQ; settings: given 30 min after [^11C]dLop to DCPQ-treated monkey (naloxone 5 mg/kg i.v.; loperamide or dLop 1 mg/kg i.v.)
Protocol: Scatter and attenuation correction were applied. Images were analyzed with PMOD. Regions of interest were drawn on coronal slices for eight brain regions (frontal cortex, anterior cingulate, temporal cortex, parietal cortex, hippocampus, occipital cortex, putamen and cerebellum). Activity was decay-corrected to the time of injection and expressed as % SUV. […]
Time-radioactivity data were collected for the same eight brain regions as previously described.

[2] = target: P-gp (Mus musculus, UniProt P21447); settings: WT mice, 30 min after [^11C]loperamide i.v.
From the text: The most lipophilic radiometabolite was identified by radio-HPLC co-elution as N-desmethylloperamide (dLop) (data not shown).

In the case of `CN(C)C(=O)C(CCN1CCC(O)(c2ccc(Cl)cc2)CC1)(c1ccccc1)c1ccccc1` [Loperamide, 4-(p-chlorophenyl)-4-hydroxy-N,N-dimethyl-α,α-diphenyl-1-piperidinebutyramide hydrochloride, reference compound], the “effect on washout of radioactivity from brain regions” value [1] is reported as “no discernible effect” and the Brain composition [2] is reported as 26%.
